These are yes or no findings as the source states them, for the method shown. Binding seen in cells or lysates may run through a third protein. A result given as binding can be weak or reduced; the word gives no strength.
Biological target: T1, native isoamylase1 (ISA1) of maize endosperm (maize (endogenous in endosperm)) (UniProt O22637)
T1 sequence: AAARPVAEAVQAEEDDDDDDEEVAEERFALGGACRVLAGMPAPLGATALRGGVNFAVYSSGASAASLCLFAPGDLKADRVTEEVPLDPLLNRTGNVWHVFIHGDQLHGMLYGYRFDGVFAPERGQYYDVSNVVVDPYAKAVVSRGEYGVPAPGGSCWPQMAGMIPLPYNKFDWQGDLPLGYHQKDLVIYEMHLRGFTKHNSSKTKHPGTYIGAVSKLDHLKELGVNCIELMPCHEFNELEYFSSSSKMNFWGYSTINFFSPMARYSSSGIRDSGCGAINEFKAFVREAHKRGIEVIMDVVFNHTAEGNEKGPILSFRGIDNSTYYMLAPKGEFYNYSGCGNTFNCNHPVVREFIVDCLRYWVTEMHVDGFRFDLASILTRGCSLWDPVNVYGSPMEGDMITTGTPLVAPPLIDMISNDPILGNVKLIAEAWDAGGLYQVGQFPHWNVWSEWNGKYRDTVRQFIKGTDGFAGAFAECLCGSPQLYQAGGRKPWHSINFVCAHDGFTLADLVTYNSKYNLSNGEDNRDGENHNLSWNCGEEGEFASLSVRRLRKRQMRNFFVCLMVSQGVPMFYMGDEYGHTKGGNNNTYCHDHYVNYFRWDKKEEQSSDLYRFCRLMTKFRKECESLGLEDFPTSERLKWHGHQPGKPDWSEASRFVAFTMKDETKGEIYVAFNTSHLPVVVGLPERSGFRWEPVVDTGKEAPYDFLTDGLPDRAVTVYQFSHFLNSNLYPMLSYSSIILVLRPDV
Assay: co-IP; total soluble endosperm extract (about 500 ug protein) incubated with anti-ISA1 IgG on protein A-Sepharose in PBS on ice for 60 min; washed 5 times in PBS with 1% NP-40; immunoblot with anti-ISA1 IgG or anti-ZPU1 serum; controls were su1-4582 and zpu1-204 null extracts

Substance: native pullulanase1 (ZPU1) of maize endosperm (enzyme)
- binding: binds

Source: paper PMC12516185
